According to the supplement of paper PMC8426693:
This is one part of the list.

How the values were obtained:
Experiment in all cases: NMR binding call after quantification (hit when 2 of 3 NMR criteria are met) (binary (1 = binding, 0 = not binding)); higher = binding
Conditions in all cases: RNA concentration 10 µM; fragment concentration 200 µM; 293 K
SARS-CoV-2 5'-UTR RNA = system: SARS-CoV-2 5'-UTR RNA
SARS-CoV-2 5_SL1 RNA = system: SARS-CoV-2 5_SL1 RNA
SARS-CoV-2 5_SL1234 RNA = system: SARS-CoV-2 5_SL1234 RNA
SARS-CoV-2 5_SL2+3 RNA = system: SARS-CoV-2 5_SL2+3 RNA
SARS-CoV-2 5_SL4 RNA = system: SARS-CoV-2 5_SL4 RNA
SARS-CoV-2 5_SL5 RNA = system: SARS-CoV-2 5_SL5 RNA
SARS-CoV-2 5_SL5a RNA = system: SARS-CoV-2 5_SL5a RNA
SARS-CoV-2 5_SL5b+c RNA = system: SARS-CoV-2 5_SL5b+c RNA
SARS-CoV-2 5_SL5stem RNA = system: SARS-CoV-2 5_SL5stem RNA
SARS-CoV-2 5_SL6 RNA = system: SARS-CoV-2 5_SL6 RNA

Row | SMILES | NMR binding call (SARS-CoV-2 5'-UTR RNA) | NMR binding call (SARS-CoV-2 5_SL1 RNA) | NMR binding call (SARS-CoV-2 5_SL1234 RNA) | NMR binding call (SARS-CoV-2 5_SL2+3 RNA) | NMR binding call (SARS-CoV-2 5_SL4 RNA) | NMR binding call (SARS-CoV-2 5_SL5 RNA) | NMR binding call (SARS-CoV-2 5_SL5a RNA) | NMR binding call (SARS-CoV-2 5_SL5b+c RNA) | NMR binding call (SARS-CoV-2 5_SL5stem RNA) | NMR binding call (SARS-CoV-2 5_SL6 RNA)
1 | CN(Cc1cccc(F)c1)S(N)(=O)=O | 0 | 0 | 0 | 0 | 0 | 0 | 0 | 0 | 0 | 0
2 | Oc1ncc(NC2CCCCC2)c(O)n1 | 0 | 0 | 0 | 0 | 0 | 0 | 0 | 0 | 0 | 0
3 | CC(O)CCn1cccn1 (stereo not given) | 0 | 0 | 0 | 0 | 0 | 0 | 0 | 0 | 0 | 0
4 | CC1CCC(C(=O)N2CCC=C(F)C2)O1 (stereo not given) | 0 | 0 | 0 | 0 | 0 | 0 | 0 | 0 | 0 | 0
5 | Cc1cccc(C(=O)N(C)C)c1C | 0 | 0 | 0 | 0 | 0 | 0 | 0 | 0 | 0 | 0
6 | CNC(=O)c1c(-c2ccc(F)cc2)noc1C | 0 | 0 | 0 | 0 | 0 | 0 | 0 | 0 | 0 | 0
7 | O=C(c1ccco1)N1CCN(C(=O)C2CC2)CC1 | 0 | 0 | 0 | 0 | 0 | 0 | 0 | 0 | 0 | 0
8 | CC(O)CNCc1c(Cl)cccc1Cl (stereo not given) | 0 | 0 | 0 | 0 | 0 | 0 | 0 | 0 | 0 | 0
9 | COCc1cc(C(N)=O)no1 | 0 | 0 | 0 | 0 | 0 | 0 | 0 | 0 | 0 | 0
10 | O=C(COc1ccc(F)cc1)N1CCCC1 | 0 | 0 | 0 | 0 | 0 | 0 | 0 | 0 | 0 | 0
11 | CCC1CCC(NCC2CCCO2)CC1 (stereo not given) | 0 | 0 | 0 | 0 | 0 | 0 | 0 | 0 | 0 | 0
12 | CCn1cc(C(=O)NCc2ccc(F)cc2)cn1 | 0 | 0 | 0 | 0 | 0 | 0 | 0 | 0 | 0 | 0
13 | CC1(C)CN(C(=O)CC(F)(F)F)CCO1 | 0 | 0 | 0 | 0 | 0 | 0 | 0 | 0 | 0 | 0
14 | CC1CCNC(C(N)=O)C1 (stereo not given) | 0 | 0 | 0 | 0 | 0 | 0 | 0 | 0 | 0 | 0
15 | CCC(=O)Nc1ccc(C)cc1O | 0 | 0 | 0 | 0 | 0 | 0 | 0 | 0 | 0 | 0
16 | COc1ccc(C(N)C(=O)O)cc1 (stereo not given) | 0 | 0 | 0 | 0 | 0 | 0 | 0 | 0 | 0 | 0
17 | CCc1nnc(NC(=O)c2cnccn2)s1 | 0 | 0 | 0 | 0 | 0 | 0 | 0 | 0 | 0 | 0
18 | CCN1N=C(C(F)(F)F)CC1=O | 0 | 0 | 0 | 0 | 0 | 0 | 0 | 0 | 0 | 0
19 | COc1ccc(C(N)c2ccccc2)cc1.Cl (stereo not given) | 0 | 0 | 0 | 0 | 0 | 0 | 0 | 0 | 0 | 0
20 | Cn1cc(CNC(=O)c2ccco2)cn1 | 0 | 0 | 0 | 0 | 0 | 0 | 0 | 0 | 0 | 0
21 | CCNc1ncccc1C | 0 | 0 | 0 | 0 | 0 | 0 | 0 | 0 | 0 | 0
22 | CC(=O)N1CCC(c2c[nH]c3ccccc23)CC1 | 0 | 0 | 0 | 0 | 0 | 0 | 0 | 0 | 0 | 0
23 | CC(NC(=O)C1CCCC1)C(=O)O (stereo not given) | 0 | 0 | 0 | 0 | 0 | 0 | 0 | 0 | 0 | 0
24 | Cc1ccc(S(=O)(=O)N(C)CCC#N)cc1 | 0 | 0 | 0 | 0 | 0 | 0 | 0 | 0 | 0 | 0
25 | O=C(NCc1ccc(F)cc1)Nc1ccccc1 | 0 | 0 | 0 | 0 | 0 | 0 | 0 | 0 | 0 | 0
26 | CCC(CO)NC(=O)Nc1ccc(Cl)cc1 (stereo not given) | 0 | 0 | 0 | 0 | 0 | 0 | 0 | 0 | 0 | 0

Row | SMILES | NMR binding call (SARS-CoV-2 5'-UTR RNA) | NMR binding call (SARS-CoV-2 5_SL1 RNA) | NMR binding call (SARS-CoV-2 5_SL1234 RNA) | NMR binding call (SARS-CoV-2 5_SL2+3 RNA) | NMR binding call (SARS-CoV-2 5_SL4 RNA) | NMR binding call (SARS-CoV-2 5_SL5 RNA) | NMR binding call (SARS-CoV-2 5_SL5a RNA) | NMR binding call (SARS-CoV-2 5_SL5b+c RNA) | NMR binding call (SARS-CoV-2 5_SL5stem RNA) | NMR binding call (SARS-CoV-2 5_SL6 RNA)
27 | CC(C)CNC(=O)c1ccc2ccccc2c1 | 0 | 0 | 0 | 0 | 0 | 0 | 0 | 0 | 0 | 0
28 | O=C(Nc1ccc2[nH]c(=O)[nH]c2c1)c1ccco1 | 1 | 0 | 0 | 0 | 0 | 0 | 0 | 0 | 0 | 0
29 | CCNC(=O)N1CCN(C(C)=O)CC1 | 0 | 0 | 0 | 0 | 0 | 0 | 0 | 0 | 0 | 0
30 | Clc1cccc(CN2CCOCC2)c1 | 0 | 0 | 0 | 0 | 0 | 0 | 0 | 0 | 0 | 0
31 | CCC(=O)Nc1ccc(N2CCC(C)CC2)cc1 | 0 | 0 | 0 | 0 | 0 | 0 | 0 | 0 | 0 | 0
32 | CC(=O)NCC1(O)CCCC1 | 0 | 0 | 0 | 0 | 0 | 0 | 0 | 0 | 0 | 0
33 | CC(Cc1ccc(Br)cc1)C(N)=O (stereo not given) | 0 | 0 | 0 | 0 | 0 | 0 | 0 | 0 | 0 | 0
34 | CNC(=O)CN(C)C1CCCCCC1 | 0 | 0 | 0 | 0 | 0 | 0 | 0 | 0 | 0 | 0
35 | c1cnc(NC2CCCCCC2)nc1 | 0 | 0 | 0 | 0 | 0 | 0 | 0 | 0 | 0 | 0
36 | Cc1ncc(CNc2cncc(F)c2)s1 | 0 | 0 | 0 | 0 | 0 | 0 | 0 | 0 | 0 | 0
37 | CNc1ncccn1 | 0 | 0 | 0 | 0 | 0 | 0 | 0 | 0 | 0 | 0
38 | COCC(=O)Nc1c(C)cc(C)cc1C | 0 | 0 | 0 | 0 | 0 | 0 | 0 | 0 | 0 | 0
39 | CC1CCN(Cc2c[nH]c3ccccc23)CC1 | 0 | 0 | 0 | 0 | 0 | 0 | 0 | 0 | 0 | 0
40 | Nc1ccc(S(=O)(=O)Nc2ccccc2)cc1 | 0 | 0 | 0 | 0 | 0 | 0 | 0 | 0 | 0 | 0
41 | COc1ccc(CCC2(C)NC(=O)NC2=O)cc1 (stereo not given) | 0 | 0 | 0 | 0 | 0 | 0 | 0 | 0 | 0 | 0
42 | C1CN(CC2CCOCC2)CCN1 | 0 | 0 | 0 | 0 | 0 | 0 | 0 | 0 | 0 | 0
43 | COCC(=O)NCc1ccccc1 | 0 | 0 | 0 | 0 | 0 | 0 | 0 | 0 | 0 | 0
44 | CC(=O)NC1CCC(N)CC1 (stereo not given) | 0 | 0 | 0 | 0 | 0 | 0 | 0 | 0 | 0 | 0
45 | COc1cccc2[nH]ccc12 | 0 | 0 | 0 | 0 | 0 | 0 | 0 | 0 | 0 | 0
46 | CC1(S(=O)(=O)N2CCC=C(F)C2)CC1 | 0 | 0 | 0 | 0 | 0 | 0 | 0 | 0 | 0 | 0
47 | CCCc1nnc(NC(=O)c2ccccn2)s1 | 1 | 0 | 0 | 0 | 0 | 0 | 0 | 0 | 0 | 0
48 | CC(=O)NCCc1ccc(S(N)(=O)=O)cc1 | 0 | 0 | 0 | 0 | 0 | 0 | 0 | 0 | 0 | 0
49 | CN1CCN(C(=O)c2ccc(F)c(F)c2)CC1 | 0 | 0 | 0 | 0 | 0 | 0 | 0 | 0 | 0 | 0
50 | CC(C)Nc1nc2ccccc2[nH]1 | 0 | 0 | 0 | 0 | 0 | 0 | 0 | 0 | 0 | 0
51 | Cc1cc(C(=O)NC(C)C)nn1C | 0 | 0 | 0 | 0 | 0 | 0 | 0 | 0 | 0 | 0

10 entries already listed, arranged by number of heavy atoms, falling:
Row | SMILES | NMR binding call (SARS-CoV-2 5'-UTR RNA) | NMR binding call (SARS-CoV-2 5_SL1 RNA) | NMR binding call (SARS-CoV-2 5_SL1234 RNA) | NMR binding call (SARS-CoV-2 5_SL2+3 RNA) | NMR binding call (SARS-CoV-2 5_SL4 RNA) | NMR binding call (SARS-CoV-2 5_SL5 RNA) | NMR binding call (SARS-CoV-2 5_SL5a RNA) | NMR binding call (SARS-CoV-2 5_SL5b+c RNA) | NMR binding call (SARS-CoV-2 5_SL5stem RNA) | NMR binding call (SARS-CoV-2 5_SL6 RNA)
7 | O=C(c1ccco1)N1CCN(C(=O)C2CC2)CC1 | 0 | 0 | 0 | 0 | 0 | 0 | 0 | 0 | 0 | 0
40 | Nc1ccc(S(=O)(=O)Nc2ccccc2)cc1 | 0 | 0 | 0 | 0 | 0 | 0 | 0 | 0 | 0 | 0
26 | CCC(CO)NC(=O)Nc1ccc(Cl)cc1 (stereo not given) | 0 | 0 | 0 | 0 | 0 | 0 | 0 | 0 | 0 | 0
11 | CCC1CCC(NCC2CCCO2)CC1 (stereo not given) | 0 | 0 | 0 | 0 | 0 | 0 | 0 | 0 | 0 | 0
1 | CN(Cc1cccc(F)c1)S(N)(=O)=O | 0 | 0 | 0 | 0 | 0 | 0 | 0 | 0 | 0 | 0
16 | COc1ccc(C(N)C(=O)O)cc1 (stereo not given) | 0 | 0 | 0 | 0 | 0 | 0 | 0 | 0 | 0 | 0
18 | CCN1N=C(C(F)(F)F)CC1=O | 0 | 0 | 0 | 0 | 0 | 0 | 0 | 0 | 0 | 0
44 | CC(=O)NC1CCC(N)CC1 (stereo not given) | 0 | 0 | 0 | 0 | 0 | 0 | 0 | 0 | 0 | 0
3 | CC(O)CCn1cccn1 (stereo not given) | 0 | 0 | 0 | 0 | 0 | 0 | 0 | 0 | 0 | 0
37 | CNc1ncccn1 | 0 | 0 | 0 | 0 | 0 | 0 | 0 | 0 | 0 | 0
